Assay results reported in patent US11672841B2, “Methods for treating heart disease in a subject with Friedreich's ataxia by an aromatic-cationic peptide” (Stealth BioTherapeutics Inc., priority 2013, dated 2023).
Not every detail of the peptide structures is certain; ends, links or a residue may be inferred. Non-standard residues stand in square brackets, D forms with d. Residues, ends and D or L forms follow the SMILES beside them. Dmt = Cc1cc(O)cc(C)c1C[C@H](N)C(=O)O

Assays:
[1] = tested on: mitochondria membrane potential; settings: known in the art; U.S. Pat. Nos. 7,550,439 and 7,576,061; cited from earlier work
[2] = tested on: muscle creatine kinase (MCK) conditional frataxin knockout mice; assay: Heart gene expression in MCK conditional frataxin knockout mice; assay type: in vivo; settings: mutant mice, 0.25 mg/kg/day subcutaneously for two weeks
[3] = tested on: Friedreich's ataxia patients; assay: Treatment of Friedreich's ataxia patients (Example 3); assay type: in vivo; settings: daily administration, e.g. 1-10 mg/kg body weight
[4] = tested on: muscle creatine kinase (MCK) conditional frataxin knockout mice; assay: Mitochondrial iron loading in hearts of MCK conditional frataxin knockout mice; assay type: in vivo; settings: mutant mice, 0.25 mg/kg/day subcutaneously for two weeks, heart mitochondria, compared to untreated mice
[5] = known in the art; U.S. Pat. Nos. 7,550,439 and 7,576,061; cited from earlier work
[6] = tested on: Transfected P131 cells; assay: Mitochondrial potential (TMRM) in t-BHP treated transfected P131 cells; assay type: cell-based; settings: 0.1 mM t-BHP with 1 nM peptide, 6 hours
[7] = tested on: Transfected P131 cells; assay: Translocation of frataxin into mitochondria in transfected P131 cells; assay type: cell-based; settings: 1 nM peptide, 6 hours; cells with low and high frataxin expression; compared to untreated cells
[8] = tested on: caspase activation and apoptosis; settings: known in the art; U.S. Pat. Nos. 7,550,439 and 7,576,061; cited from earlier work
[9] = tested on: FXN-knockout (KO) mice; assay: Survival of FXN-knockout mice; assay type: in vivo; settings: IP three times per week for 60 days, compared to PBS
[10] = tested on: mitochondria; settings: known in the art; U.S. Pat. Nos. 7,550,439 and 7,576,061; cited from earlier work

SMILES: Cc1cc(O)cc(C)c1C[C@H](NC(=O)[C@H](N)CCCNC(=N)N)C(=O)N[C@@H](CCCCN)C(=O)N[C@@H](Cc1ccccc1)C(N)=O [D-Arg-2′,6′-Dmt-Lys-Phe-NH2] (H-[dR][Dmt]KF-NH2)
- mitochondria membrane potential [1]: restore mitochondria membrane potential
- expression of genes involved in heme synthesis, iron-sulfur cluster assembly, and iron storage [2]: expression levels that are similar to normal subjects
- severity of symptoms associated with Friedreich's ataxia [3]: reduced severity of symptoms
- iron within the isolated mitochondria [4]: decrease in iron within the isolated mitochondria
- anti-oxidant properties [5]: reduce the rate of lipid oxidation, peroxidation, mitochondrial H2O2 production, and intracellular reactive oxygen species (ROS) production
- TMRM fluorescence (mitochondrial membrane potential) [6]: prevention of mitochondrial depolarization and restoration of the membrane potential
- frataxin localized to the inner membrane of the mitochondria [7]: increase in frataxin localized to the inner membrane of the mitochondria
- caspase activation and apoptosis [8]: inhibit caspase activation and apoptosis
- survival [9]: increased survival
- subcellular localization [10]: localize to the mitochondria
